No constants are given. Whether binding was seen depends on the method and setting. Some binding calls cover weakened binding; strength is not graded here.

Protein sequences, listed by entry. Tags and fused reporters are not part of them. Lines headed by an entry give the natural chain unless they say otherwise; changes in a name come on top.
UniProt Q13349: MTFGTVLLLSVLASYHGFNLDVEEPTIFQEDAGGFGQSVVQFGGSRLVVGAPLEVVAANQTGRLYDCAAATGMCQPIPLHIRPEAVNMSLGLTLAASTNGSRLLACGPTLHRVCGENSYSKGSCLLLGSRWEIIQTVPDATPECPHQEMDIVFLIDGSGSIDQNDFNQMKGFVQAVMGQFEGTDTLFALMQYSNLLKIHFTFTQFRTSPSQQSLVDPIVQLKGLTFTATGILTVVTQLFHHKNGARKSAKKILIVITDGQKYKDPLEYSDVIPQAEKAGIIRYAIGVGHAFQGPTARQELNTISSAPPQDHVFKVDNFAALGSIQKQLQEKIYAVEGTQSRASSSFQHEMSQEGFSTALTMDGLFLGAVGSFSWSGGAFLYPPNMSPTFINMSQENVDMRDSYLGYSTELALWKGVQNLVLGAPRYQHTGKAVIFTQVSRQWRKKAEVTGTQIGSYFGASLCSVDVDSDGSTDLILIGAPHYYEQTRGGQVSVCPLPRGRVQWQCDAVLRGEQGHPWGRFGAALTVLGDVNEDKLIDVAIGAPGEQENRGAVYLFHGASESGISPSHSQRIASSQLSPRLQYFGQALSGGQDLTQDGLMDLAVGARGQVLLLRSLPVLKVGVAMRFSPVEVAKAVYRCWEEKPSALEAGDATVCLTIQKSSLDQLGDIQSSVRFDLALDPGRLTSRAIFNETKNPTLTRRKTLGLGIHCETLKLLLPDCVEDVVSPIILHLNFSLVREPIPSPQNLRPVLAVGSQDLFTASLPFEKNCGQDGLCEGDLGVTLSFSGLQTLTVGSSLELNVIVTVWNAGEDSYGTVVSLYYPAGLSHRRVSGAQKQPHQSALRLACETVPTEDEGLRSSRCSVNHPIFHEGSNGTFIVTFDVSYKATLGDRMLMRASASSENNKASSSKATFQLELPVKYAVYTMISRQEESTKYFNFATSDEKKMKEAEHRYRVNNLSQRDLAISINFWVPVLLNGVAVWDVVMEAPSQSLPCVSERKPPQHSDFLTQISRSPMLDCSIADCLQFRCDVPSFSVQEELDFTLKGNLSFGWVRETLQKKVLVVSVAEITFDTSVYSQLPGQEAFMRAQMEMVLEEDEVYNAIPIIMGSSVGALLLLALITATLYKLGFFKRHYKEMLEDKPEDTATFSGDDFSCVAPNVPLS

The target in this assay is T1, recombinant VCAM-1 (commercial preparation, R & D Systems), immobilized (UniProt P19320).
T1 sequence (looked up): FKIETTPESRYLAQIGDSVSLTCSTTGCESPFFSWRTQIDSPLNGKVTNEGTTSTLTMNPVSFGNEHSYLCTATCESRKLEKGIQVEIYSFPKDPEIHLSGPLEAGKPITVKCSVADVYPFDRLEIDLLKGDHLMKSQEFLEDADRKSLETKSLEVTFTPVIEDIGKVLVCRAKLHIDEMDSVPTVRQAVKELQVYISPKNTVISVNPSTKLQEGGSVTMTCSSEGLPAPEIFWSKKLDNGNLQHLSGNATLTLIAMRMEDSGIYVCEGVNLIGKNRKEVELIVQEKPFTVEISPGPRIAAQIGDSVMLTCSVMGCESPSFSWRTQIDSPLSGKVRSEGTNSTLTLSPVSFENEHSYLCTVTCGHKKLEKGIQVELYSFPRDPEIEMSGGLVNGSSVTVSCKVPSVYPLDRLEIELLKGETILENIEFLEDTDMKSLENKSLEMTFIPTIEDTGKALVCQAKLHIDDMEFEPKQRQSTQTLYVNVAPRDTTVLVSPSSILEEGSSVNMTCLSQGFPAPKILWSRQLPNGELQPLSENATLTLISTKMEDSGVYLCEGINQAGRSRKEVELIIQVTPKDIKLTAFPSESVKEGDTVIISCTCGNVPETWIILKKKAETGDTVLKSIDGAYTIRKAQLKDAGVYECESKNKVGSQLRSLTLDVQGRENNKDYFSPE
In words: eosinophil adhesion assays.

Take “native human αd/CD18 on human leukocytes and myeloid cell lines (from UniProt Q13349 18-1161; P05107 23-769) (receptor; other documents disagree on this pair)”: the binding entry is “binds”.
